Primary screen of a compound library

Measurements from “University of Dundee, Small-Polar-MMV Screening Library” (2021), ChEMBL document CHEMBL3988442.

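Phenotypic screen: M. tuberculosis growth, cholesterol and DPPC medium, 4 days; the read-out is not stated. Concentration: 50 µM. Higher reads as more growth inhibition (inferred: compounds with an IC50 in retests scored well above the rest). About 69,000 compounds were tested under these conditions; 0.54% (about 370) showed 50% or more at least once.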

Each number is a percent effect as filed. How 0% and 100% were set is not recorded. Most values in the screen are low, and negative values occur. Compounds were drawn at random from those tested, without regard to their results. Two or more numbers in one place are separate tests of the same structure; such repeats can differ widely.

compound	Percent Effect
CN(Cc1ccccc1)S(=O)(=O)N1C[C@@H](C(=O)O)[C@H](C2CC2)C1	4.379
NC(=O)NCC1CCCCN1C(=O)c1cccc(Cl)c1 (configuration not stated)	2.329
c1cnc(-c2nc(CN3CCn4c(nnc4C4CC4)C3)cs2)nc1	-24.55
OCc1cccc(CNCc2cccc3c2OCCO3)c1	-0.9619
CS(=O)(=O)NCc1cnc2n1CCN(Cc1cccs1)CC2.O=C(O)C(F)(F)F	-1.719
Fc1cccnc1Oc1cc(F)c(CN2CCCC2)c(Cl)c1	-23.1
O=S(=O)(Cc1ccccc1)NCc1nnc2n1CCC2	-36.24
COCC(=O)N1CCN(c2ccc(C(=O)OC)cc2)CC1C (configuration not stated)	-26.05
O=C(CCn1cccc1)N1CCc2[nH]nc(COc3ccccc3)c2C1	-2.39
CCCC(C)C(=O)N1CCC(c2cc(N3CCOCC3)nc(C)n2)CC1 (configuration not stated)	-0.5004
COC1COC2(CCN(C(=O)c3cnc(C)cn3)CC2)C1 (configuration not stated)	-8.341
CN(C)C(=O)CO[C@H]1COCCN(C2CCOCC2)C1	-20.77
CC(C)(C(=O)N1CCC(CS(N)(=O)=O)CC1)c1ccccc1F	-13.06
COc1cccc(C(=O)N2CCN(C(=O)CCCn3ccnc3)CC2)c1	-33.18
CN(Cc1ccc(Cl)cc1)C(=O)Nc1cnn(CC(N)=O)c1	-31.92
CCc1nnc2n1CCN(C(=O)c1ccc(-c3ccco3)nc1C)C2	3.073
NC(=O)CN1CCC(C(=O)NCc2nc(-c3ccc(F)cc3)cs2)CC1	6.487 and -10.1
CC(CO)NC(=O)c1ccc(NCc2cc(C#N)ccc2F)cc1 (configuration not stated)	1.449
COC(=O)CCNC(=O)c1nc(NS(=O)(=O)c2ccccc2)sc1C	-3.101
CN(CC1(O)CCCN(c2ccccn2)C1)C(=O)CC1CCOCC1 (configuration not stated)	-5.974
O=C(c1c[nH]nc1-c1cccc(F)c1)N1CCNC(c2ccccc2)C1 (configuration not stated)	-2.563
Cc1cnccc1CN1CC[C@@](C)(O)[C@H](Oc2cccc(F)c2)C1	-14.88
O=C(O)C(F)(F)F.O=C(O)C(F)(F)F.O=C1N(c2ccsc2)CCC12CCCN(Cc1ccccn1)C2 (configuration not stated)	-0.4929
CCC(=O)c1ccc(OCC(=O)N(C)C(C)c2ccon2)cc1 (configuration not stated)	-2.633
CN(CC(=O)N1CCN(c2ncccn2)CC1)c1ccc(Cl)cn1	11.39
CC1C(=O)NCCN1CCOc1ccc(C#N)cc1 (configuration not stated)	5.933
Cn1cc(C2COC3(CCN(C(=O)Cn4cccn4)CC3)C2)cn1 (configuration not stated)	-12.09
O=C(c1csnn1)N1CCc2[nH]nc(COc3cccc(Cl)c3)c2C1	15.85
NC[C@H]1CC[C@H](C(NC(=O)CC2CCCC2)c2ccccn2)CC1 (some centres not stated)	-21.8
[H][C@]12CC[C@]([H])(CN(S(=O)(=O)N(C)C)C1)N(C(=O)Cn1ccnc1CC)C2	10.45
Cn1ccc2c(C(=O)NC3CN4CCC3CC4)cccc21 (configuration not stated)	-5.251
C1CCC(c2nc3c(c(N4CCN5CCCC5C4)n2)CCNCC3)C1 (configuration not stated)	24.4
O=C(O)C(F)(F)F.O=C(c1cocn1)N1CCC2(CC1)COC(COCc1ccccn1)C2 (configuration not stated)	-7.167 and 3.732
CCc1nc(CCNc2ccc(S(N)(=O)=O)cc2C#N)cs1	6.095
CCC1(O)CCCN(c2nc(-c3ccccn3)nc3c2c(C)nn3C)C1 (configuration not stated)	16.31
[H][C@@]12C[C@H](C(=O)NCC(C)C)[C@@]([H])(CN(S(=O)(=O)c3cccc(C)c3)C1)O2	-10.3
CN(Cc1nnc2n1CCC2)C(=O)c1ccc(=O)n(C)n1	6.824 and -6.072
CCC(C(=O)NCc1cc(N2CCOCC2)ncn1)n1cccn1 (configuration not stated)	-9.317
COc1ccc(CNC(C)Cn2cccn2)cc1OC (configuration not stated)	-29
Cc1ccc(CCN2CCC(N(C)Cc3noc(C4CC4)n3)C2)cc1 (configuration not stated)	-13.17
CCCc1nnc(N(C)CC2CCN(CC(C)C)CC2)o1	-5.553
COc1ccccc1C(C(=O)O)N1CCCN(C2CCCC2)CC1 (configuration not stated)	-16.31
CCN(CC)C(CNC(=O)c1c(C)noc1C(C)C)c1ccsc1 (configuration not stated)	-7.817
CCc1nc2n(n1)CC(Nc1cc(C)nc3ncnn13)CC2 (configuration not stated)	-0.5532
CC(C)(C)OC(=O)NC(C)(C(N)=O)c1cccc(Cl)c1 (configuration not stated)	-19.6
Cc1cc(CN(C)C2CCCN(c3cccnn3)C2)on1 (configuration not stated)	5.737
CC(CN1CCC(CCO)CC1)n1cnc2ccccc21 (configuration not stated)	-0.8852
Cc1ccccc1C1(C(=O)NCCN(C(C)C)C(C)C)CCOCC1	-10.11
O=C(O)C(F)(F)F.O=C(O)C(F)(F)F.[H][C@]12C[C@@H](CN3CCCC3)N(C)[C@@]1([H])CCN(C(=O)c1cnoc1C)C2	9.433
Cc1nc(O)ccc1C(=O)N1CCCC1c1nc(-c2ccccc2)n[nH]1 (configuration not stated)	6.307
CCC1CN(C(=O)c2cc(C(C)=O)c(C)[nH]c2=O)CCN1C(C)C (configuration not stated)	-4.76
O=C(CSC1CCc2ccccc2NC1=O)NCCc1ccc(O)cc1 (configuration not stated)	-10.85
O=C1OCCN1Cc1nc(C2(c3ccc(F)cc3)CCOC2)no1 (configuration not stated)	3.311
CC(C)n1cnnc1CN(C)C(=O)c1ccccc1-n1cncn1	-18.93
Cc1ccc(-c2nnc(CN3CCOCC(CO)C3)o2)n1C (configuration not stated)	-19.04
CC(C)c1cc(N2CCN(c3ccc(O)cc3)CC2)n2nccc2n1	-27.81
COc1ccc2nnc(CCCC(=O)NCCC3=CCCCC3)n2n1	-2.269
Cn1cc(-c2nc(CNCCn3cccn3)cs2)cn1	-24.36
CCCN1CCCN(C(=O)c2oc(C)nc2C)CC1	-33.91
COc1ccc(CNCC(C)Oc2ccccn2)cc1.Cl (configuration not stated)	-7.329
COC1CCCN(C(=O)c2sc(CC(C)C)nc2C)C1 (configuration not stated)	-8.943
Cc1noc(C2CCN(C(=O)CCNc3ncccn3)CC2)n1	-6.315
CC(C(=O)NCc1ccnc(N2CCCC2)c1)n1cccn1 (configuration not stated)	0.02131
CNC(=O)c1cc2c(nc1NCC1CC1)CCN(CC1CC1)CC2.O=C(O)C(F)(F)F.O=C(O)C(F)(F)F	-7.664
CC(=O)N1CCc2nc3sc(C(N)=O)c(N)c3c(C(F)(F)F)c2C1	9.664